# Results: the supplement of paper PMC9135407
# Where “and” joins values, the source holds several entries; their conditions need not be identical. Equal values may be shown once. Where a name gives a salt, the structure may show the parent alone. ± gives the standard deviation of the averaged measurements. The list shows a part of the results. Plates or batches differ in their baseline, so values are only roughly comparable.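 Assay uses culture-activated primary human stellate myofibroblasts; lipid droplet recovery indicates inactivation. Measured: proportion of Hoechst-counted cells over a plate-specific Bodipy cutoff, duplicate wells, DMSO and nortriptyline as per-plate negative and positive controls. A hit scores, control-normalized, above the plate's top-tenth-percentile nortriptyline wells or ranks among its three best wells. Final well concentrations not reported.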
# Tested on: primary human hepatic stellate cells (donor 1)
# Assay: percent Bodipy-positive cells; higher = more lipid droplet accumulation
# Conditions: 48 h
# [1] = library stock concentration: 3.33 mM
# [2] = library stock concentration: 10 mM
# [3] = library stock concentration: 7.7 mM
# [4] = library stock concentration: 1 mM
# [5] = library stock concentration: 9.2 mM
# [6] = library stock concentration: 3.1 mM
# [7] = library stock concentration: 7.2 mM
smiles,measurement,setting,value
CN1CCN(c2nc3ccccc3nc2Cl)CC1,percent Bodipy-positive cells,[1],6.53 ± 2.6%
same,percent Bodipy-positive cells,[2],36.2 ± 4.4%
CN(C)C(=O)Oc1ccc[n+](C)c1 [Mestinon],percent Bodipy-positive cells,[2],26.3 ± 3.2%
CN(C)C(=O)Oc1ccc[n+](C)c1 [Pyridostigmine Bromide],percent Bodipy-positive cells,[1],7.44 ± 2.2%
same,percent Bodipy-positive cells,[2],9.74 ± 0.32%
CN(C)C(=O)Oc1ccc[n+](C)c1 [Pyridostigmine bromide],percent Bodipy-positive cells,[3],8.83 ± 3.6%
C[C@@H]1O[C@@H](O[C@@H]2C=C3CC[C@@H]4[C@H](CC[C@]5(C)[C@@H](c6ccc(=O)oc6)CC[C@]45O)[C@@]3(C)CC2)[C@H](O)[C@H](O)[C@H]1O [Proscillaridin A],percent Bodipy-positive cells,,67.4 ± 4.1%
N[C@H](C(=O)O)c1cc(O)no1 [(?)-Ibotenic acid],percent Bodipy-positive cells,[2],41.2 ± 2.6%
N[C@H](C(=O)O)c1cc(O)no1 [Ibotenic acid],percent Bodipy-positive cells,[2],7.66 ± 0.84%
CCN1CC2(OC(=O)c3ccccc3NC(C)=O)CCC(OC)C34C1C(CC23)C1(O)CC(OC)C2CC4C1(O)C2OC (centres undefined) [Lappaconite HBr],percent Bodipy-positive cells,[1],12.2 ± 4.3%
same,percent Bodipy-positive cells,[2],13.3 ± 7.4%
CCCCC/C=C\C/C=C\C/C=C\C/C=C\CCCC(=O)NCc1ccoc1,percent Bodipy-positive cells,[4],15.6 ± 1.3%
C[C@]12CC[C@@H](O)C[C@H]1CC[C@@H]1[C@@H]2CC[C@]2(C)C(=O)CC[C@@H]12 [3-alpha-Hydroxy-5-beta-androstan-17-one],percent Bodipy-positive cells,,15.6 ± 0.27%
CC(N)c1cccc(Cl)c1Cl (centres undefined),percent Bodipy-positive cells,[2],68.6 ± 7.7%
CN1CCC2=C[C@H](O)[C@H]3OC(=O)c4cc5c(cc4[C@H]3[C@@H]21)OCO5 [Hippeastrine hydrobromide],percent Bodipy-positive cells,,11.2 ± 2.4%
N#CC(C#N)=Cc1ccc([N+](=O)[O-])c(O)c1,percent Bodipy-positive cells,[4],10.7 ± 5%
N#CC(C#N)=Cc1ccc([N+](=O)[O-])c(O)c1 [Tyrphostin AG-126],percent Bodipy-positive cells,library stock concentration: 23.2 mM,15 ± 0.21%
O=[N+]([O-])OCC(CO[N+](=O)[O-])O[N+](=O)[O-] [Nitroglycerin],percent Bodipy-positive cells,library stock concentration: 8.8 mM,56.7 ± 6.3%
CCN(CC)C(=O)c1ccc(C2=CC3(CCNCC3)Oc3cccc(O)c32)cc1,percent Bodipy-positive cells,[1],20.8 ± 4.1%
same,percent Bodipy-positive cells,[2],49 ± 2.6%
O=S1(=O)N(CCN2CC=C(c3c[nH]c4cc(F)ccc34)CC2)c2cccc3c2N1CCC3,percent Bodipy-positive cells,[2],58.3 ± 7.5%
CC[C@H]1CN2CCc3cc(OC)c(OC)cc3[C@@H]2C[C@@H]1C[C@H]1NCCc2cc(OC)c(OC)cc21.Cl.Cl [Emetine dihydrochloride],percent Bodipy-positive cells,,85.9 ± 1.1%
CN1CCN(c2ccc3ccccc3n2)CC1 [N-Methylquipazine dimaleate],percent Bodipy-positive cells,[2],29.3 ± 4.8%
CC1OC(OC2/C=C/C=C/C=C/C=C/CC/C=C/C=C/[C@H](C)[C@@H](O)[C@@H](C)[C@H](C)OC(=O)CC(O)CC(O)CC(O)CCC(O)C(O)C[C@]3(O)CC(O)C(C(=O)O)C(C2)O3)C(O)C(N)C1O (some centres undefined) [Nystatine],percent Bodipy-positive cells,,30.3 ± 8%
NCCCNCCSP(=O)(O)O [Amifostine],percent Bodipy-positive cells,library stock concentration: 9.3 mM,8.38 ± 2.2%
same,percent Bodipy-positive cells,[2],44 ± 10%
"O=[N+]([O-])c1ccc(O)c([N+](=O)[O-])c1 [2,4-dinitrophenol]",percent Bodipy-positive cells,[2],27.2 ± 7.2%
CN=C(NS(=O)(=O)c1ccc(Cl)cc1)N1CC(c2ccccc2)C(c2ccc(Cl)cc2)=N1 (centres undefined),percent Bodipy-positive cells,[4],12.5 ± 5%
"Clc1ccc(N2CCN(Cc3c[nH]c4ncccc34)CC2)cc1 [L-745,870 trihydrochloride]",percent Bodipy-positive cells,[2],27.4 ± 0.38%
CCn1cnc2c(Nc3cccc(Cl)c3)nc(N[C@@H]3CCCC[C@@H]3N)nc21,percent Bodipy-positive cells,library stock concentration: 80 uM,15.4 ± 11%
same,percent Bodipy-positive cells,library stock concentration: 400 uM,13.5 ± 6%
same,percent Bodipy-positive cells,library stock concentration: 2 mM,47.8 ± 9.7%
same,percent Bodipy-positive cells,[2],75.2% and 100%
O=c1[nH]c2ccc(Cl)cc2c(N[C@@H]2CN3CCC2CC3)c1-c1nc2ccccc2[nH]1,percent Bodipy-positive cells,[1],41.7 ± 10%
same,percent Bodipy-positive cells,[2],96.1 ± 4%
Nc1ccc([As](=O)(O)O)cc1 [Arsanilic acid],percent Bodipy-positive cells,[5],8.55 ± 1%
CC1(C)[C@@H](O)C[C@H]2[C@](C)(O)[C@@H]3CC[C@@H]4[C@@H](O)[C@@]3(C[C@@H](O)[C@@]21O)C[C@@]4(C)O [Grayanotoxin III],percent Bodipy-positive cells,library stock concentration: 13.5 mM,13.9 ± 2.7%
CCCCCCCC/C=C\CCCCCCCC(=O)N[C@H](C)CO,percent Bodipy-positive cells,[4],24.6 ± 1.4%
COP(=S)(OC)Oc1cc(Cl)c(Cl)cc1Cl [Ronnel],percent Bodipy-positive cells,library stock concentration: 6.2 mM,16.2 ± 8.5%
NCCC(O)C(=O)NC1CC(N)C(OC2OC(CN)C(O)[C@H](O)[C@@H]2N)[C@H](OC2O[C@H](CO)[C@@H](O)[C@@H]2O)[C@@H]1O (some centres undefined) [Butirosin disulfate salt],percent Bodipy-positive cells,,6.3 ± 1.9%
c1cc(N2CCNCC2)c2cnccc2c1 [8-piperazin-1-yl-Isoquinoline (hydrochloride)],percent Bodipy-positive cells,[4],8.25 ± 0.39%
CNCC(O)c1ccc(O)cc1 (centres undefined) [(?)-Synephrine],percent Bodipy-positive cells,[2],12.3 ± 6.1%
CNCC(O)c1ccc(O)cc1 (centres undefined) [Synephrine HCl],percent Bodipy-positive cells,[1],12.8 ± 4.4%
same,percent Bodipy-positive cells,[2],13.2 ± 5.4%
CNCC(O)c1ccc(O)cc1 (centres undefined),percent Bodipy-positive cells,[2],6.75% and 27.7%
CNCC(O)c1ccc(O)cc1 (centres undefined) [Synephrine],percent Bodipy-positive cells,[1],18.2 ± 2.5%
same,percent Bodipy-positive cells,[2],14.4 ± 3%
CC(C)NCC(O)c1ccc(N)c(C#N)c1 (centres undefined) [Cimaterol],percent Bodipy-positive cells,library stock concentration: 9.1 mM,10.8 ± 3.1%
same,percent Bodipy-positive cells,[2],8.31 ± 2.1%
same,percent Bodipy-positive cells,library stock concentration: 22.8 mM,34.6 ± 3.1%
COC(=O)[C@@]1(O)C[C@H]2O[C@]1(C)n1c3ccccc3c3c4c(c5c6ccccc6n2c5c31)C(=O)NC4,percent Bodipy-positive cells,library stock concentration: 1.1 mM,1.97 ± 0.1%
CCC1=C[C@H]2CN3CCc4c([nH]c5ccccc45)[C@](C(=O)OC)(C2)[C@H]13 [Catharanthine],percent Bodipy-positive cells,,36.5 ± 4.3%
same,percent Bodipy-positive cells,[1],11.7 ± 0.86%
same,percent Bodipy-positive cells,[2],59.2 ± 15%
C#CCOC(=O)C1=CCCN(C)C1 [Arecaidine propargyl ester hydrobromide],percent Bodipy-positive cells,[2],38.3 ± 3%
C#CCOC(=O)C1=CCCN(C)C1 [Arecaidine propargyl ester tosylate],percent Bodipy-positive cells,[2],9.16 ± 3.1%
CC(C)C[C@H]1C(=O)N2CCC[C@H]2[C@]2(O)O[C@](NC(=O)[C@@H]3C=C4c5cccc6[nH]c(Br)c(c56)C[C@H]4N(C)C3)(C(C)C)C(=O)N12 [(+)-Bromocriptine methanesulfonate],percent Bodipy-positive cells,[2],79.9 ± 4.2%
CC(C)C[C@H]1C(=O)N2CCC[C@H]2[C@]2(O)O[C@](NC(=O)[C@@H]3C=C4c5cccc6[nH]c(Br)c(c56)C[C@H]4N(C)C3)(C(C)C)C(=O)N12 [Bromocryptine mesylate],percent Bodipy-positive cells,,58.6 ± 18%
CC(C)C[C@H]1C(=O)N2CCC[C@H]2[C@]2(O)O[C@](NC(=O)[C@@H]3C=C4c5cccc6[nH]c(Br)c(c56)C[C@H]4N(C)C3)(C(C)C)C(=O)N12 [Bromocriptine mesylate],percent Bodipy-positive cells,[6],8.93 ± 0.89%
same,percent Bodipy-positive cells,[2],8.31% and 15.8%
CN1C[C@H](CNC(=O)OCc2ccccc2)C[C@@H]2c3cccc4c3c(cn4C)C[C@H]21 [Metergoline],percent Bodipy-positive cells,,89.6 ± 2.1%
c1ccc(CCCN2CCN(CCOC(c3ccccc3)c3ccccc3)CC2)cc1,percent Bodipy-positive cells,[2],90.7% and 66%
C=CCN1CC[C@]23c4c5ccc(O)c4O[C@H]2/C(=N/N=C2\CC[C@@]4(O)[C@H]6Cc7ccc(O)c8c7[C@@]4(CCN6CC=C)[C@H]2O8)CC[C@@]3(O)[C@H]1C5 [Naloxonazine 2HCl],percent Bodipy-positive cells,[6],17.4 ± 2%
C[C@]12CCC(=O)C=C1CC[C@@H]1[C@@H]2CC[C@@]2(C)[C@H]1CC[C@]2(C)O [Methyltestosterone],percent Bodipy-positive cells,[2],20.1 ± 5.7%
CCOc1ccccc1-n1c(C(C)N2CCN(C(=O)COc3ccc(Cl)cc3)CC2)nc2ccccc2c1=O (centres undefined) [Erastin],percent Bodipy-positive cells,[1],28.4 ± 4.6%
same,percent Bodipy-positive cells,[2],69.8 ± 2.3%
CN1[C@@H]2CC[C@H]1C[C@@H](OC(=O)C(CO)c1ccccc1)C2 (some centres undefined) [Atropine sulfate monohydrate],percent Bodipy-positive cells,,18 ± 4.5%
CN1[C@@H]2CC[C@H]1C[C@@H](OC(=O)C(CO)c1ccccc1)C2 (some centres undefined) [Atropine],percent Bodipy-positive cells,[1],9.89 ± 0.4%
same,percent Bodipy-positive cells,[2],16.5 ± 6%
CN1[C@@H]2CC[C@H]1C[C@@H](OC(=O)C(CO)c1ccccc1)C2 (some centres undefined),percent Bodipy-positive cells,[2],33.3 ± 1.9%
CN1[C@@H]2CC[C@H]1C[C@@H](OC(=O)C(CO)c1ccccc1)C2 (some centres undefined) [Atropine sulfate],percent Bodipy-positive cells,library stock concentration: 5.2 mM,1.59 ± 0.32%
same,percent Bodipy-positive cells,library stock concentration: 6.9 mM,6.77 ± 0.59%
c1ccc(C2CC2)c(OCC2=NCCN2)c1 [Cirazoline],percent Bodipy-positive cells,library stock concentration: 23.1 mM,66.1 ± 9.1%
c1ccc(C2CC2)c(OCC2=NCCN2)c1 [Cirazoline HCl],percent Bodipy-positive cells,[5],11.8 ± 2.1%
CN1[C@@H]2CC[C@H]1C[C@@H](OC(c1ccccc1)c1ccccc1N)C2 (some centres undefined) [Aminobenztropine],percent Bodipy-positive cells,[2],76.9 ± 5%
CNC(Cc1c[nH]c2ccccc12)C(=O)O (centres undefined) [Abrine (l)],percent Bodipy-positive cells,[2],31.6 ± 9.6%
CNC(C)(C)Cc1ccccc1 [Mephentermine hemisulfate],percent Bodipy-positive cells,,13.3 ± 5%
CNC(C)(C)Cc1ccccc1 [Mephentermine sulfate],percent Bodipy-positive cells,[3],22 ± 2.1%
same,percent Bodipy-positive cells,[2],56.3 ± 11%
CCOP(=S)(OCC)Oc1cc(C)nc(C(C)C)n1,percent Bodipy-positive cells,[2],33.4 ± 5.2%
"c1ccc(CC(c2ccccc2)N2CCCCC2)cc1 (centres undefined) [(?)-1-(1,2-Diphenylethyl)piperidine maleate]",percent Bodipy-positive cells,[2],24.3 ± 2.7%
C[C@]12CCC(=O)C(O)=C1CC[C@@H]1[C@@H]2CC[C@]2(C)C(=O)CC[C@@H]12 [Formestane],percent Bodipy-positive cells,[1],18.1 ± 4.2%
same,percent Bodipy-positive cells,library stock concentration: 6.6 mM,15.9 ± 3.3%
C=C(C)CN1CC[C@@]23c4c5ccc(O)c4O[C@H]2c2[nH]c4ccccc4c2C[C@]3(O)C1C5 [SDM25N hydrochloride],percent Bodipy-positive cells,[2],60.9 ± 4.6%
NCC(CP(=O)(O)O)c1ccc(Cl)cc1 (centres undefined) [Phaclofen],percent Bodipy-positive cells,[2],7.57 ± 2.5%
CN1[C@@H]2CC[C@H]1CC(OC(=O)N1Cc3ccccc3NC1=O)C2 (some centres undefined) [DAU 5884 hydrochloride],percent Bodipy-positive cells,[2],10.2 ± 2.8%
C[C@@H]1O[C@@H](O[C@@H]2C[C@@H](O)[C@]3(CO)[C@H]4[C@H](O)C[C@]5(C)[C@@H](C6=CC(=O)OC6)CC[C@]5(O)[C@@H]4CC[C@]3(O)C2)[C@H](O)[C@H](O)[C@H]1O [Ouabain],percent Bodipy-positive cells,[2],59.48 ± 0.071%
CC[C@H]1CN2CCc3cc(OC)c(OC)cc3C2C[C@@H]1CC1NCCc2cc(OC)c(OC)cc21.Cl.Cl (some centres undefined) [Emetine],percent Bodipy-positive cells,library stock concentration: 3.6 mM,81.2 ± 3.6%
COc1ccc(C(CN(C)C)C2(O)CCCCC2)cc1 (centres undefined),percent Bodipy-positive cells,[2],27.5 ± 14%
COc1ccc(C(CN(C)C)C2(O)CCCCC2)cc1 (centres undefined) [Venlafaxine],percent Bodipy-positive cells,[1],22.8 ± 8%
same,percent Bodipy-positive cells,[7],28.5 ± 3.3%
COc1ccc(C(CN(C)C)C2(O)CCCCC2)cc1 (centres undefined) [Venlafaxine hydrochloride],percent Bodipy-positive cells,[2],57.2 ± 7.4%
COc1ccc(C(CN(C)C)C2(O)CCCCC2)cc1 (centres undefined) [Venlafaxine HCl],percent Bodipy-positive cells,[7],14.2 ± 6.5%
Cc1o[nH]c(=O)c1CC(N)C(=O)O (centres undefined) [(?)-AMPA hydrobromide],percent Bodipy-positive cells,[2],51.3 ± 8.5%
